Measured values published in publication PMC3009664.
These are yes or no findings as the source states them, for the method shown. Binding seen in cells or lysates may run through a third protein. Some entries that bind do so weakly or less than the wild type.

Amino acid sequences for entries named in this document (tags omitted).
UniProt P41232: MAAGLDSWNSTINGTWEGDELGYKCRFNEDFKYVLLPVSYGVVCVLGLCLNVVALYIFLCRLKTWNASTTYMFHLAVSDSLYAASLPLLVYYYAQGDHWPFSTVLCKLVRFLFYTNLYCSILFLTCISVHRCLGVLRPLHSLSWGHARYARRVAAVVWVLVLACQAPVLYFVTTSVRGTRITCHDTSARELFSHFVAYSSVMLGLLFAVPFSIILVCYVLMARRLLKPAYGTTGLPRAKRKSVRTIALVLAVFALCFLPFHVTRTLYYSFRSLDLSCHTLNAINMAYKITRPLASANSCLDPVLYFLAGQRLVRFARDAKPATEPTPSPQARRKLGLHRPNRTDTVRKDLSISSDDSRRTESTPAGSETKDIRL

Biological target: T1, adenosine A1 receptor (rat (endogenous in rat brain)) (UniProt P25099)
T1 sequence: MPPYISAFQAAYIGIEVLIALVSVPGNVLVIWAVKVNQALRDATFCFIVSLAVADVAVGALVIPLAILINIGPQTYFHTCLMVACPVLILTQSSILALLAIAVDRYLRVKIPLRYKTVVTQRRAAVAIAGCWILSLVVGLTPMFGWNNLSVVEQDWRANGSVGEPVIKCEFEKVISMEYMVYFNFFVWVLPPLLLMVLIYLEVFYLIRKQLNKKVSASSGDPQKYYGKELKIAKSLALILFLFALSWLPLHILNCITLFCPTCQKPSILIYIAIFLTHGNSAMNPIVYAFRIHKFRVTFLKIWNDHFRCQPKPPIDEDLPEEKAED
Assay: co-IP; membrane extracts of rat cerebral cortex, cerebellum and hippocampus (50 mM Tris-HCl pH 7.4, 1% Triton X-100, 300 mM NaCl, 4°C) immunoprecipitated with anti-A1R and Protein G-Sepharose; immunoblot with anti-P2Y2R

binding: binds
Substance: P2Y2 purinergic receptor (from UniProt P41232 1-374)
